In PMC10748395:
Changes are numbered by the printed parent chain. In names and notes the source's numbering stands. No constants are given. Whether binding was seen depends on the method and setting. For some assays here: Binding seen in cells or lysates may run through a third protein. Some binding calls cover weakened binding; strength is not graded here. For some assays here: Sequences can lack the tags named with a protein. One block for each binder: values may come before it.

Legend:
[1] = molecular target: T1, GIPC1 in colorectal cancer cell lysates (SW620, SW480) (human (endogenous in SW620 and SW480)) (UniProt O14908); assay: co-IP; lysates of SW480/MACC1 or SW480/ΔSH3 cells immunoprecipitated with V5 or GIPC1 antibodies (IgG and beta-tubulin antibodies as negative controls), Western blot with GIPC1 or SH3BP4 antibody
T1 sequence: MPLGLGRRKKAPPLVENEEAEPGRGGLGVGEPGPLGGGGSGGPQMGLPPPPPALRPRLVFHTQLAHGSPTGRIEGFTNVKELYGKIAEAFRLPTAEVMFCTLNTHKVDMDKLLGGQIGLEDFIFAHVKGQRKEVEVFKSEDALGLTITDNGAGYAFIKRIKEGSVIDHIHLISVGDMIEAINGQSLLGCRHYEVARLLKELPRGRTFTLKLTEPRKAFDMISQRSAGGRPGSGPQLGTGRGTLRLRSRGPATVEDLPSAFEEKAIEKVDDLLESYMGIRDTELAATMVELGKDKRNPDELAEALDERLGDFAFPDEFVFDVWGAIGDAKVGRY

[2] = molecular target: T2, MACC1 (Metastasis-associated in colon cancer 1), full-length, yeast two-hybrid fusion (human) (UniProt Q6ZN28); assay: two-hybrid; Gal4 system, vectors pGBT9 and pGAD10 or pGAD424, yeast reporter strain Y187, beta-galactosidase filter assay
T2 sequence: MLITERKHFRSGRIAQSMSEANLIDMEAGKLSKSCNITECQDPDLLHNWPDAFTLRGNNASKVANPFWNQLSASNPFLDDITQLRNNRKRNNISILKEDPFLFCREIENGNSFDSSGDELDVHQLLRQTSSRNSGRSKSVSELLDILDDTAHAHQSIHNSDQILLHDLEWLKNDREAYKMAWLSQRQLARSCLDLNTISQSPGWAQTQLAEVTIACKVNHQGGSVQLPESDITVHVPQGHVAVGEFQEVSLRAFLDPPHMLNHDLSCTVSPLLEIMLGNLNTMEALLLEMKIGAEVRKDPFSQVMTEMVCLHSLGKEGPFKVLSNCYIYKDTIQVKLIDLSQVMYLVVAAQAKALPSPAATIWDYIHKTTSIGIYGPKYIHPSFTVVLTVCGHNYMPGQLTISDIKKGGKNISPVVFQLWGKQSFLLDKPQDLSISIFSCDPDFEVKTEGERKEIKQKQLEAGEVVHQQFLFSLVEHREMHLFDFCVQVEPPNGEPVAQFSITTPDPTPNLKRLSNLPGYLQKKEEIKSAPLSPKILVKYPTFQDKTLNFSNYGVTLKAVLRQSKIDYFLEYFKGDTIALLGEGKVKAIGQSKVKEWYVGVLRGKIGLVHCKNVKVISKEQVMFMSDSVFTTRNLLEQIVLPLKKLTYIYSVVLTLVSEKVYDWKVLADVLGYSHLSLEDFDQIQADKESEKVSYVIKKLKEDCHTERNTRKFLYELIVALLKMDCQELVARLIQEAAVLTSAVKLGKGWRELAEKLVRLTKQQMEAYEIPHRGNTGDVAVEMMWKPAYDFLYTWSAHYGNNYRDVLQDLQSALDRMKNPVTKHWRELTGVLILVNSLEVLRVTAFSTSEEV

[3] = molecular target: T3, MACC1 P531A,P534A, yeast two-hybrid fusion (human) (UniProt Q6ZN28); assay: as above
T3 sequence: T2 sequence with P531A, P534A

[4] = molecular target: T4, V5-tagged MACC1 (SW480/MACC1 cells) (human) (UniProt Q6ZN28); assay: co-IP; lysates of SW480/MACC1 or SW480/ΔSH3 cells immunoprecipitated with V5 or GIPC1 antibodies (IgG and beta-tubulin antibodies as negative controls), Western blot with GIPC1 or SH3BP4 antibody
T4 sequence: T2 sequence

binding [1]: binds
B1: SH3BP4 in SW480 cell lysate (protein, UniProt Q9P0V3 1-963)
chain: MAAQRIRAANSNGLPRCKSEGTLIDLSEGFSETSFNDIKVPSPSALLVDNPTPFGNAKEVIAIKDYCPTNFTTLKFSKGDHLYVLDTSGGEWWYAHNTTEMGYIPSSYVQPLNYRNSTLSDSGMIDNLPDSPDEVAKELELLGGWTDDKKVPGRMYSNNPFWNGVQTNPFLNGNVPVMPSLDELNPKSTVDLLLFDAGTSSFTESSSATTNSTGNIFDELPVTNGLHAEPPVRRDNPFFRSKRSYSLSELSVLQAKSDAPTSSSFFTGLKSPAPEQFQSREDFRTAWLNHRKLARSCHDLDLLGQSPGWGQTQAVETNIVCKLDSSGGAVQLPDTSISIHVPEGHVAPGETQQISMKALLDPPLELNSDRSCSISPVLEVKLSNLEVKTSIILEMKVSAEIKNDLFSKSTVGLQCLRSDSKEGPYVSVPLNCSCGDTVQAQLHNLEPCMYVAVVAHGPSILYPSTVWDFINKKVTVGLYGPKHIHPSFKTVVTIFGHDCAPKTLLVSEVTRQAPNPAPVALQLWGKHQFVLSRPQDLKVCMFSNMTNYEVKASEQAKVVRGFQLKLGKVSRLIFPITSQNPNELSDFTLRVQVKDDQEAILTQFCVQTPQPPPKSAIKPSGQRRFLKKNEVGKIILSPFATTTKYPTFQDRPVSSLKFGKLLKTVVRQNKNHYLLEYKKGDGIALLSEERVRLRGQLWTKEWYIGYYQGRVGLVHTKNVLVVGRARPSLCSGPELSTSVLLEQILRPCKFLTYIYASVRTLLMENISSWRSFADALGYVNLPLTFFCRAELDSEPERVASVLEKLKEDCNNTENKERKSFQKELVMALLKMDCQGLVVRLIQDFVLLTTAVEVAQRWRELAEKLAKVSKQQMDAYESPHRDRNGVVDSEAMWKPAYDFLLTWSHQIGDSYRDVIQELHLGLDKMKNPITKRWKHLTGTLILVNSLDVLRAAAFSPADQDDFVI

binding [2]: binds
B3: human GIPC3, yeast two-hybrid fusion (protein, UniProt Q8TF64 1-312)
chain: MEGAAAREARGTETPRASAPPPAPSEPPAAPRARPRLVFRTQLAHGSPTGKIEGFTNVRELYAKIAEAFGIAPTEILFCTLNSHKVDMQKLLGGQIGLEDFIFAHVRGETKEVEVTKTEDALGLTITDNGAGYAFIKRIKEGSIINRIEAVCVGDSIEAINDHSIVGCRHYEVAKMLRELPKSQPFTLRLVQPKRAFDMIGQRSRSSKCPVEAKVTSGRETLRLRSGGAATVEEAPSEFEEEASRKVDDLLESYMGIRDPELASTMVETSKKTASAQEFARCLDSVLGEFAFPDEFVVEVWAAIGEAREACG

Second part, the binder before the results:

B2: GIPC1 C-terminal segment (aa 222-333), yeast two-hybrid fusion (domain or fragment, UniProt O14908 222-333)
chain: SQRSAGGRPGSGPQLGTGRGTLRLRSRGPATVEDLPSAFEEKAIEKVDDLLESYMGIRDTELAATMVELGKDKRNPDELAEALDERLGDFAFPDEFVFDVWGAIGDAKVGRY
binding [2]: binds

B4: GIPC2 (species not named for this test), yeast two-hybrid fusion (protein, UniProt Q8TF65 1-315)
chain: MPLKLRGKKKAKSKETAGLVEGEPTGAGGGSLSASRAPARRLVFHAQLAHGSATGRVEGFSSIQELYAQIAGAFEISPSEILYCTLNTPKIDMERLLGGQLGLEDFIFAHVKGIEKEVNVYKSEDSLGLTITDNGVGYAFIKRIKDGGVIDSVKTICVGDHIESINGENIVGWRHYDVAKKLKELKKEELFTMKLIEPKKAFEIELRSKAGKSSGEKIGCGRATLRLRSKGPATVEEMPSETKAKAIEKIDDVLELYMGIRDIDLATTMFEAGKDKVNPDEFAVALDETLGDFAFPDEFVFDVWGVIGDAKRRGL
binding [2]: binds

B5: GIPC1 (GAIP C-Terminus-Interacting Protein PDZ Domain Containing Family, Member 1), full-length, yeast two-hybrid fusion (protein, UniProt O14908 1-333)
chain: T1 sequence
binding [2]: binds | binding [3]: binds

B6: GIPC1 in colorectal cancer cell lysates (SW620, SW480) (protein, UniProt O14908 1-333)
chain: T1 sequence
binding [4]: binds

B7: GIPC1 H191D, yeast two-hybrid fusion (protein, UniProt O14908 1-333)
chain: T1 sequence with H191D
binding [2]: binds
